{"source": "paper PMC4923905", "binders": {"B1": {"name": "AD-LSF2 (LIKE SEX FOUR2 fused to the GAL4 activation domain) (enzyme, UniProt Q9SRK5 1-282)", "chain": "MSVIGSKSCIFSVARYTRENEKSSCFTSINKKSSLDLRFPRNLAGVSCKFSGENPGTNGVSLSSKNKMEDYNTAMKRLMRSPYEYHHDLGMNYTLIRDELIVGSQPQKPEDIDHLKQEQNVAYILNLQQDKDIEYWGIDLDSIVRRCKELGIRHMRRPAKDFDPLSLRSQLPKAVSSLEWAVSEGKGRVYVHCSAGLGRAPGVSIAYMYWFCDMNLNTAYDTLVSKRPCGPNKGAIRGATYDLAKNDPWKEPFESLPENAFEDIADWERKLIQERVRALRGT"}, "B2": {"name": "nEYFP-LSF2 (enzyme, UniProt Q9SRK5 62-282)", "chain": "LSSKNKMEDYNTAMKRLMRSPYEYHHDLGMNYTLIRDELIVGSQPQKPEDIDHLKQEQNVAYILNLQQDKDIEYWGIDLDSIVRRCKELGIRHMRRPAKDFDPLSLRSQLPKAVSSLEWAVSEGKGRVYVHCSAGLGRAPGVSIAYMYWFCDMNLNTAYDTLVSKRPCGPNKGAIRGATYDLAKNDPWKEPFESLPENAFEDIADWERKLIQERVRALRGT"}, "B3": {"name": "LSF2-cEYFP (enzyme, UniProt Q9SRK5 62-282)", "chain": "B2 chain"}}, "key": {"[1]": {"target": "T1, BD-MPK8 (mitogen-activated protein kinase 8 fused to the GAL4 binding domain) (Arabidopsis thaliana) (UniProt Q9LM33)", "T1 sequence": "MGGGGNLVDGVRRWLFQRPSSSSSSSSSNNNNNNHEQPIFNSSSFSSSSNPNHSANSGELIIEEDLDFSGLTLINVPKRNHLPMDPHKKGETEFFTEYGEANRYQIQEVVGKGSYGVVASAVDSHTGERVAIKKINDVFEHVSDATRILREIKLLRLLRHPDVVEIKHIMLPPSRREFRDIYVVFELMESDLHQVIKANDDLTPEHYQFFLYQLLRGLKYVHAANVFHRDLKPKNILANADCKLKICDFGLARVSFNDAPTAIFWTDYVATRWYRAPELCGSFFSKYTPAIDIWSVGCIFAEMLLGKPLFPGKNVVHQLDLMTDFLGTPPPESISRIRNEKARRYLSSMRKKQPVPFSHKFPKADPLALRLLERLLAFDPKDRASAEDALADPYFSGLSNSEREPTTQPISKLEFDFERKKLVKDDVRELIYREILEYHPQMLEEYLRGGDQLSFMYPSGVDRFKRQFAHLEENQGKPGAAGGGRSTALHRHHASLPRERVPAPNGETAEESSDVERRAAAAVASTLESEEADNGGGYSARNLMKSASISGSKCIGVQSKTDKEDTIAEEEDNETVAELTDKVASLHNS", "assay": "two-hybrid; Matchmaker GAL4-based system, yeast strain AH109; AD-LSF2 (pGAD424) with BD-MPK8 (pGBT9); SD/-Leu/-Trp/-His with 20 mM 3-AT"}, "[2]": {"target": "T2, MPK8-cEYFP (Arabidopsis thaliana) (UniProt Q9LM33)", "T2 sequence": "T1 sequence", "assay": "split reporter; BiFC with nEYFP(1-174) and cEYFP(175-end) fusions co-infiltrated by Agrobacterium EHA105 into N. benthamiana leaves; observed after 2-3 days"}, "[3]": {"target": "T3, nEYFP-MPK8 (Arabidopsis thaliana) (UniProt Q9LM33)", "T3 sequence": "T1 sequence", "assay": "split reporter; BiFC with nEYFP(1-174) and cEYFP(175-end) fusions co-infiltrated by Agrobacterium EHA105 into N. benthamiana leaves; observed after 2-3 days"}}, "note": "Results are given in words; binding and its absence hold for the method and conditions named. For part of these data: In cells and extracts the contact can be indirect. Some results given as binding are weak or reduced against the parent protein; the word gives no strength. For part of these data: Sequences can lack the tags named with a protein.", "data": [{"binder": "B1", "values": [{"measurement": "binding", "setting": "[1]", "result": "binds"}]}, {"binder": "B2", "values": [{"measurement": "binding", "setting": "[2]", "result": "binds"}]}, {"binder": "B3", "values": [{"measurement": "binding", "setting": "[3]", "result": "binds"}]}]}
